Data published in doi:10.1101/701474.

By UniProt entry, the sequences of proteins in these tests, tags left out.
UniProt P14635: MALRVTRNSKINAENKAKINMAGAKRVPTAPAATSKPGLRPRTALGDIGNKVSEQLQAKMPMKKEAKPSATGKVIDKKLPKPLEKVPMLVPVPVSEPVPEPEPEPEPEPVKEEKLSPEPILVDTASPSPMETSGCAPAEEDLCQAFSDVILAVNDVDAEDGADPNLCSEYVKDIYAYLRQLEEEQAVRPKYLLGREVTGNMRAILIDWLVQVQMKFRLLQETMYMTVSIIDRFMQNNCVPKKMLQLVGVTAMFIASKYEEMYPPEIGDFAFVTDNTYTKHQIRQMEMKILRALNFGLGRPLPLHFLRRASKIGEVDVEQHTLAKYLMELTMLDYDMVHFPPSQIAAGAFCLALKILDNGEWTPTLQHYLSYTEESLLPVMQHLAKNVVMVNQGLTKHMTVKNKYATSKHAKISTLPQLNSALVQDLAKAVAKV

Target: Cyclin B1 (RPE Cyclin B1-Venus+/-:Ruby-MAD2+/- cells) (human (endogenous in RPE1)) (UniProt P14635)
Test: affinity purification with mass spectrometry

B1: MAD1 (endogenous, parental RPE1 cells) (protein, UniProt Q9Y6D9 1-718)
chain: MEDLGENTMVLSTLRSLNNFISQRVEGGSGLDISTSAPGSLQMQYQQSMQLEERAEQIRSKSHLIQVEREKMQMELSHKRARVELERAASTSARNYEREVDRNQELLTRIRQLQEREAGAEEKMQEQLERNRQCQQNLDAASKRLREKEDSLAQAGETINALKGRISELQWSVMDQEMRVKRLESEKQELQEQLDLQHKKCQEANQKIQELQASQEARADHEQQIKDLEQKLSLQEQDAAIVKNMKSELVRLPRLERELKQLREESAHLREMRETNGLLQEELEGLQRKLGRQEKMQETLVGLELENERLLAKLQSWERLDQTMGLSIRTPEDLSRFVVELQQRELALKDKNSAVTSSARGLEKARQQLQEELRQVSGQLLEERKKRETHEALARRLQKRVLLLTKERDGMRAILGSYDSELTPAEYSPQLTRRMREAEDMVQKVHSHSAEMEAQLSQALEELGGQKQRADMLEMELKMLKSQSSSAEQSFLFSREEADTLRLKVEELEGERSRLEEEKRMLEAQLERRALQGDYDQSRTKVLHMSLNPTSVARQRLREDHSQLQAECERLRGLLRAMERGGTVPADLEAAAASLPSSKEVAELKKQVESAELKNQRLKEVFQTKIQEFRKACYTLTGYQIDITTENQYRLTSLYAEHPGDCLIFKATSPSGSKMQLLETEFSHTVGELIEVHLRRQDSIPAFLSSLTLELFSRQTVA
In the case of B1, the binding is reported as “binds”.

Results are given in words; binding and its absence hold for the method and conditions named. In cells and extracts the contact can be indirect. A yes stands for co-enrichment or nearness to the bait. Other partners may have been found.
